Measurements as given in article PMC7337926.
These are yes or no findings as the source states them, for the method shown. Binding seen in cells or lysates may run through a third protein. Here binding means that the protein was enriched with, or labelled near, the bait; the list need not be complete. For some of these results: A no says only that the protein was not detected with the bait. For some of these results: Sequences can lack the tags named with a protein.

By UniProt entry, the sequences of proteins in these tests, tags left out. Where a name states a change or a piece, a line headed by the entry shows the natural chain unless it says otherwise.
UniProt F4JLJ9: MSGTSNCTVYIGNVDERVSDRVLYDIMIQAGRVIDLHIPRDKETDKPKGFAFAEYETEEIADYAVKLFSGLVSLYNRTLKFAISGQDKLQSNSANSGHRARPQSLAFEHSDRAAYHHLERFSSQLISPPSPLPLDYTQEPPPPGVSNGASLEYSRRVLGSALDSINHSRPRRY

T1: FLAG-tagged SERRATE (FLAG-SE) (Arabidopsis thaliana), Q9ZVD0
T1 chain: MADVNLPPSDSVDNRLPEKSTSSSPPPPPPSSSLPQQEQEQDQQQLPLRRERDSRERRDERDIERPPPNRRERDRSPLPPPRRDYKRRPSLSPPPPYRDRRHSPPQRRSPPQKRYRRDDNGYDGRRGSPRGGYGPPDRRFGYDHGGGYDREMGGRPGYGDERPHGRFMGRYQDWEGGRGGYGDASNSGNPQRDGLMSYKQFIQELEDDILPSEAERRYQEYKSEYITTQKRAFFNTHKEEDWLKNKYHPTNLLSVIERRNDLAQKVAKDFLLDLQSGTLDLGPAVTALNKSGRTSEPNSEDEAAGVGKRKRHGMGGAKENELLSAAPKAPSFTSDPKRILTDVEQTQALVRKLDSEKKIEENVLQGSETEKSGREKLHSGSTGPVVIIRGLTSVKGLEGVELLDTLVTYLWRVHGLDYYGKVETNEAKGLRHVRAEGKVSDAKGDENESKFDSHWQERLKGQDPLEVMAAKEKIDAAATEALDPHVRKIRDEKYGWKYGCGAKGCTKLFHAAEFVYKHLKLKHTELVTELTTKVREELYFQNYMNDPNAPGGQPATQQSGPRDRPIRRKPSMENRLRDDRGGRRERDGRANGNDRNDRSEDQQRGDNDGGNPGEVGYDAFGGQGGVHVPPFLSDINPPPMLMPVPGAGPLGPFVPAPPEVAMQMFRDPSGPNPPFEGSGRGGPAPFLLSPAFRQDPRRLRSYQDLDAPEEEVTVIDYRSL


What was measured:
[1] = target: GFP-tagged ZCCHC8B (transgenic plants) (Arabidopsis thaliana); assay: affinity purification with mass spectrometry; GFP-tagged ZCCHC8A, ZCCHC8B or RBM7 as baits from flower extracts (50 mM Tris HCl pH 8.0, 50 mM NaCl, 1% Triton X-100), anti-GFP magnetic microbeads, LC-MS/MS; control IPs in Col-0
[2] = target: GFP-tagged ZCCHC8A (transgenic plants) (Arabidopsis thaliana); assay: as above
[3] = target: GFP-tagged RBM7 (transgenic plants) (Arabidopsis thaliana) (UniProt F4JLJ9); assay: as above
[4] = target: T1, FLAG-tagged SERRATE (FLAG-SE) …; assay: affinity purification with mass spectrometry; FLAG-SE as bait from flower extracts (50 mM Tris HCl pH 8.0, 50 mM NaCl, 1% Triton X-100), anti-FLAG magnetic microbeads, LC-MS/MS; mock IPs in Col-0; details: remark: other sources report otherwise

| Binder | binding [1] | binding [2] | binding [3] | binding [4] |
| --- | --- | --- | --- | --- |
| SERRATE (endogenous) (protein, UniProt Q9ZVD0 1-720) MADVNLPPSDSVDNRLPEKSTSSSPPPPPPSSSLPQQEQEQDQQQLPLRRERDSRERRDERDIERPPPNRRERDRSPLPPPRRDYKRRPSLSPPPPYRDRRHSPPQRRSPPQKRYRRDDNGYDGRRGSPRGGYGPPDRRFGYDHGGGYDREMGGRPGYGDERPHGRFMGRYQDWEGGRGGYGDASNSGNPQRDGLMSYKQFIQELEDDILPSEAERRYQEYKSEYITTQKRAFFNTHKEEDWLKNKYHPTNLLSVIERRNDLAQKVAKDFLLDLQSGTLDLGPAVTALNKSGRTSEPNSEDEAAGVGKRKRHGMGGAKENELLSAAPKAPSFTSDPKRILTDVEQTQALVRKLDSEKKIEENVLQGSETEKSGREKLHSGSTGPVVIIRGLTSVKGLEGVELLDTLVTYLWRVHGLDYYGKVETNEAKGLRHVRAEGKVSDAKGDENESKFDSHWQERLKGQDPLEVMAAKEKIDAAATEALDPHVRKIRDEKYGWKYGCGAKGCTKLFHAAEFVYKHLKLKHTELVTELTTKVREELYFQNYMNDPNAPGGQPATQQSGPRDRPIRRKPSMENRLRDDRGGRRERDGRANGNDRNDRSEDQQRGDNDGGNPGEVGYDAFGGQGGVHVPPFLSDINPPPMLMPVPGAGPLGPFVPAPPEVAMQMFRDPSGPNPPFEGSGRGGPAPFLLSPAFRQDPRRLRSYQDLDAPEEEVTVIDYRSL | binds | binds | binds | – |
| HYPONASTIC LEAVES 1 (HYL1), O04492 1-419 (protein) MTSTDVSSGVSNCYVFKSRLQEYAQKYKLPTPVYEIVKEGPSHKSLFQSTVILDGVRYNSLPGFFNRKAAEQSAAEVALRELAKSSELSQCVSQPVHETGLCKNLLQEYAQKMNYAIPLYQCQKVETLGRVTQFTCTVEIGGIKYTGAATRTKKDAEISAGRTALLAIQSDTKNNLANYNTQLTVLPCEKKTIQAAIPLKETVKTLKARKAQFKKKAQKGKRTVAKNPEDIIIPPQPTDHCQNDQSEKIETTPNLEPSSCMNGLKEAAFGSVETEKIETTPNLEPPSCMNGLKEAAFGSVETEKIETTPNLEPPSCMNGLKEAAFGSVETEKIETTPNLEPSSCMNGLKEAAFGSVETEKIETTPNLEPPSCMNGLKEAAFGSVETEKIETTPNLESSSCMSGLKEAAFGSVETEASHA | – | – | – | no binding |
